This experiment concerns the target T1, Squalene synthase (Rattus norvegicus, UniProt Q02769).
T1 sequence (Q02769 whole entry): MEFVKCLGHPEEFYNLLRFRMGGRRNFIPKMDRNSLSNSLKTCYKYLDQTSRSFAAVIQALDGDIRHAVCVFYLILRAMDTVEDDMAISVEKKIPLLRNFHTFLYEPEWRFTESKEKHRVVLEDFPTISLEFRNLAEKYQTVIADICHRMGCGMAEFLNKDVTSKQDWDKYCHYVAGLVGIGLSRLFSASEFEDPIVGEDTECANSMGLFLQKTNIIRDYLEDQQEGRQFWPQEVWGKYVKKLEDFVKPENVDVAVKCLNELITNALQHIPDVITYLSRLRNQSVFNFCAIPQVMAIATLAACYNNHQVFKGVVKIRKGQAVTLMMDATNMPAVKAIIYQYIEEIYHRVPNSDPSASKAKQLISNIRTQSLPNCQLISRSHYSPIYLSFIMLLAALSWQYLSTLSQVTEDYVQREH
The experiment is described as follows: Inhibition of rat liver squalene synthase(SQS).

`C=C(CC[C@]12O[C@H](C(=O)O)[C@@](O)(C(=O)O)[C@](C(=O)O)(O1)[C@H](O)[C@H]2O)[C@@H](OC(C)=O)[C@H](C)Cc1ccccc1` returned an IC50 of 6 nM.

Broadly, the IC50 is the concentration that gives 50% inhibition. A higher IC50 goes with lower potency.

The values are drawn from ChEMBL document CHEMBL1151052, “Semi-synthetic qualestatins: Squalene synthase inhibition and antifungal activity. The SAR of C6 and C7 modifications” (Bioorg Med Chem Lett, 1993).
